Measured values from PubChem BioAssay AID651744 (Broad Institute, 2012).
Among all 5,600 compounds or so, about 3,100 (55%) were called active. The set was probably picked from earlier hits. This list was built around the results that the source calls inconclusive (neither active nor inactive); the mix of calls is not that of the screen.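 How the source made its calls: active means mean loss of cell viability signal at or above a set limit, and enough replicates individually reaching it; inconclusive means meets only the mean limit or only the replicate share; inactive means meets neither condition.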

assay: NIH/3T3 fibroblast cytotoxicity, confirmation, cytotoxicity control, cell-based, cherry-pick, single point, set 2 (AID 651744); conditions: NIH/3T3 viability, CellTiter-Glo ATP luminescence, 90 h; at 24.9 µM; stronger effect = higher value;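 further: 0% = median of neutral control wells and 100% = median of positive control wells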

Compound | inhibition
COc1ccc(CN(C)C[C@H]2Oc3ccc(NC(=O)Nc4ccc5c(c4)OCO5)cc3CC(=O)N([C@H](C)CO)C[C@H]2C)cc1 | inactive: 7.97%
CN1C(=O)c2cc(NC(=O)c3ccc(F)c(F)c3)ccc2OC[C@H]2O[C@@H](CC(=O)N[C@H]3CCN(Cc4ccccc4)C3)CC[C@H]21 | inconclusive: 22.3%
C[C@@H]1CN([C@H](C)CO)C(=O)c2cc(/C=C/c3ccccc3)cnc2O[C@H]1CN(C)C(=O)Nc1ccccc1F | inconclusive: 36%
Cc1ccccc1-c1ccc([C@H]2[C@@H](CO)N3CCCCN(C(=O)NC4CCCC4)C[C@@H]23)cc1 | active: 80.8%
CN1c2ccc(-c3cccc(F)c3)cc2[C@H]2[C@H](CCN2C(=O)C2CC2)[C@@H]1CO | inconclusive: 15.5%
C[C@@H]1CN([C@H](C)CO)C(=O)c2cc(C#Cc3ccccc3F)cnc2O[C@H]1CN(C)S(=O)(=O)c1ccccc1F | inconclusive: 26.4%
C[C@H](CO)N1C[C@H](C)[C@H](CN(C)C(=O)Nc2cccc3ccccc23)OCCCC[C@H](C)Oc2ccc(NC(=O)Nc3ccc(F)cc3)cc2C1=O | inactive: 0.07%
N#Cc1ccc(-c2ccc3c(c2)[C@H]2[C@H](CCN2C(=O)C2CC2)[C@@H](CO)N3)cc1 | active: 31.7%
C[C@@H]1CN([C@H](C)CO)C(=O)c2cc(C#Cc3cccc(F)c3)cnc2O[C@H]1CN(C)C(=O)c1ccccc1F | inconclusive: 22.7%
C[C@@H]1CN([C@@H](C)CO)C(=O)c2cc(NC(=O)Nc3cccc4ccccc34)ccc2O[C@H]1CN(C)Cc1ccc(Oc2ccccc2)cc1 | inconclusive: 22.1%
CCCC#Cc1ccc([C@H]2[C@@H](C#N)N(C(=O)CN3CCOCC3)[C@H]2CO)cc1 | inconclusive: 22.9%
Cc1ccc(S(=O)(=O)Nc2ccc3c(c2)CC(=O)N([C@@H](C)CO)C[C@@H](C)[C@H](CN(C)Cc2ccc4c(c2)OCO4)O3)cc1 | inconclusive: 41.6%
O=C(Nc1cc(F)ccc1F)N1CCCCN2[C@H](CO)[C@H](c3ccc(-c4cccnc4)cc3)[C@H]2C1 | inconclusive: 25.9%
COC(=O)N(C)C[C@H]1OCc2cn(nn2)CCCC(=O)N([C@@H](C)CO)C[C@H]1C | inconclusive: 7.94%
Cc1noc(C)c1S(=O)(=O)Nc1ccc2c(c1)C(=O)N([C@H](C)CO)C[C@H](C)[C@@H](CN(C)C(=O)Nc1ccc(C(F)(F)F)cc1)OCCCC[C@H](C)O2 | inconclusive: 18.5%
COc1ccc(NC(=O)N(C)C[C@@H]2OCCCC[C@H](C)Oc3ccc(NC(=O)Nc4ccc(C(F)(F)F)cc4)cc3C(=O)N([C@@H](C)CO)C[C@H]2C)cc1 | inconclusive: 28.9%
C[C@@H]1CN([C@@H](C)CO)C(=O)c2cc(NS(=O)(=O)c3ccc(F)cc3)ccc2O[C@@H](C)CCCCO[C@@H]1CN(C)S(=O)(=O)c1ccc(Cl)cc1 | inconclusive: 19.6%
Cn1cnc(S(=O)(=O)N2CCCCN3[C@H](C2)[C@@H](c2ccc(-c4cccc(F)c4)cc2)[C@@H]3CO)c1 | inconclusive: 39.1%
O=C(C[C@@H]1CC[C@H]2[C@@H](COC[C@H](O)CN2C(=O)Nc2ccc(Cl)cc2)O1)NCCc1ccncc1 | inactive: 11.3%

Compound | inhibition
C[C@H](CO)N1C[C@H](C)[C@@H](CN(C)C(=O)C2CCCCC2)OCCCC[C@H](C)Oc2ccc(NC(=O)Nc3cccc4ccccc34)cc2C1=O | inconclusive: 16%
CCCN1[C@@H]2c3ccc(C4=CCCC4)c(=O)n3C[C@@H]2[C@@H](CO)[C@@H]1C(=O)NCc1cccc(OC)c1 | inconclusive: 23.4%
CC(=O)N1CCCCN2[C@H](CO)[C@H](c3ccc(-c4ccc(C)cc4)cc3)[C@@H]2C1 | active: 34.2%
C[C@H]1CN([C@@H](C)CO)C(=O)c2cccc(NC(=O)NC3CCCCC3)c2O[C@H]1CN(C)Cc1ccc(C(=O)Nc2ccccc2N)cc1 | inconclusive: 30.8%
CN(C)C(=O)c1cccc(-c2ccc3c(c2)[C@H]2[C@H](CCN2C(=O)c2ccccc2F)[C@H](CO)N3)c1 | inactive: 15.1%
C[C@H](CO)N1C[C@H](C)[C@@H](CN(C)C(=O)Nc2ccc(F)cc2)Oc2cc(/C=C/c3ccccc3)ccc2S1(=O)=O | inconclusive: 27.4%
C[C@@H]1CN([C@@H](C)CO)C(=O)c2cccc(NC(=O)c3ccc(-c4nccs4)cc3)c2O[C@H]1CN(C)CC1CCCCC1 | inactive: 15.3%
COc1ccc(S(=O)(=O)Nc2ccc3c(c2)C(=O)N([C@H](C)CO)C[C@H](C)[C@H](CN(C)C(=O)Nc2ccc(C(F)(F)F)cc2)OCCCC[C@@H](C)O3)cc1 | inconclusive: 23.9%
C/C=C/c1ccc([C@H]2[C@@H](C#N)N(c3nc(CC)cs3)[C@H]2CO)cc1 | inconclusive: 23.1%
C[C@@H]1CCCCO[C@@H](CN(C)S(=O)(=O)c2ccc(F)cc2)[C@H](C)CN([C@@H](C)CO)C(=O)c2cc(NS(=O)(=O)c3ccc(Cl)cc3)ccc2O1 | active: 34.5%
C[C@@H]1CN([C@H](C)CO)C(=O)c2cc(NC(=O)C3CCCCC3)ccc2O[C@@H](C)CCCCO[C@H]1CN(C)Cc1ccncc1 | inactive: 2.6%
COc1cccc(-c2ccc([C@H]3[C@H](C#N)N(C(=O)Cc4ccncc4)[C@H]3CO)cc2)c1 | active: 52.2%
CN(C)CC#Cc1ccc([C@@H]2[C@@H](CO)N3CCCCN(C(=O)Nc4ccc(F)cc4)C[C@@H]23)cc1 | inconclusive: 38.7%
C[C@@H]1CN([C@@H](C)CO)C(=O)c2cccc(NC(=O)C3CC3)c2O[C@H]1CN(C)C(=O)Nc1ccc(F)cc1 | inactive: 20.7%
COc1ccccc1C#Cc1ccc2c(c1)O[C@@H](CN(C)Cc1ccccc1)[C@@H](C)CN([C@@H](C)CO)S2(=O)=O | inactive: 7.32%
O=C(C[C@@H]1CC[C@@H]2[C@H](COC[C@@H](O)CN2C(=O)Nc2ccc(Cl)c(Cl)c2)O1)NCc1ccncc1 | inconclusive: -3.84%
Cc1ccccc1-c1ccc2c(c1)O[C@H](CN(C)Cc1ccncc1)[C@H](C)CN([C@@H](C)CO)S2(=O)=O | inconclusive: 32.5%
C[C@H](CO)N1C[C@H](C)[C@H](CN(C)Cc2ccc(C(=O)Nc3ccccc3N)cc2)Oc2c(NC(=O)c3ccncc3)cccc2C1=O | inconclusive: 23.3%
O=C(C[C@H]1CC[C@H]2[C@@H](COC[C@H](O)CN2Cc2cccc(C(F)(F)F)c2)O1)NCc1ccc(Cl)cc1 | inconclusive: 39.9%

Arranged by formula weight (rising): part of the list above.
Compound | inhibition
CN(C)CC#Cc1ccc([C@@H]2[C@@H](CO)N3CCCCN(C(=O)Nc4ccc(F)cc4)C[C@@H]23)cc1 | inconclusive: 38.7%
CN(C)C(=O)c1cccc(-c2ccc3c(c2)[C@H]2[C@H](CCN2C(=O)c2ccccc2F)[C@H](CO)N3)c1 | inactive: 15.1%
C[C@@H]1CN([C@@H](C)CO)C(=O)c2cccc(NC(=O)c3ccc(-c4nccs4)cc3)c2O[C@H]1CN(C)CC1CCCCC1 | inactive: 15.3%

Later entries

Compound | inhibition
C[C@H](CO)N1C[C@H](C)[C@@H](CN(C)C(=O)C2CCCCC2)OCCCC[C@H](C)Oc2ccc(NC(=O)Nc3ccc4c(c3)OCO4)cc2C1=O | inactive: 2.99%
C[C@@H]1CN([C@@H](C)CO)S(=O)(=O)c2ccc(C#CC3CC3)cc2O[C@H]1CN(C)Cc1ccccn1 | active: 72.2%
N#C[C@H]1[C@H](c2ccc(C#CCC3CCCC3)cc2)[C@@H](CO)N1C(=O)c1ccccn1 | active: 104%
CCCNC(=O)N1[C@@H](C#N)[C@H](c2ccc(C3=CCCCC3)cc2)[C@@H]1CO | active: 32.8%
COc1cccc(-c2ccc([C@@H]3[C@@H](CO)N4CCCCN(C(=O)NC(C)C)C[C@@H]34)cc2)c1 | inconclusive: 21.8%
C[C@@H]1CCCCO[C@H](CN(C)S(=O)(=O)c2ccc(Cl)cc2)[C@H](C)CN([C@H](C)CO)C(=O)c2cc(NC(=O)Cc3ccccc3)ccc2O1 | inactive: -7.85%
N#Cc1cccc(-c2ccc3c(c2)[C@H]2[C@H](CCN2S(=O)(=O)c2cccc(F)c2)[C@H](CO)N3)c1 | inconclusive: 23%
N#C[C@@H]1[C@H](c2ccc(C#CC3CCCC3)cc2)[C@@H](CO)N1C(=O)Nc1ccc(F)cc1 | active: 107%
C[C@@H]1CN([C@@H](C)CO)C(=O)c2cc(NC(=O)Nc3ccc(C(F)(F)F)cc3)ccc2O[C@H]1CN(C)Cc1ccc(-c2ccccc2)cc1 | active: 105%
Cc1cccc(-c2ccc([C@H]3[C@@H](CO)N4CCCCN(C(=O)c5cccnc5)C[C@H]34)cc2)c1 | inconclusive: 20.5%
C[C@@H]1CCCCO[C@H](CN(C)C(=O)Cc2ccccc2)[C@@H](C)CN([C@@H](C)CO)C(=O)c2cc(N(C)C)ccc2O1 | inactive: -13.4%
COc1cccc(-c2ccc3c(c2)O[C@@H](CN(C)C(=O)C2CCCCC2)[C@@H](C)CN([C@H](C)CO)S3(=O)=O)c1 | active: 90.3%
CC(C)NC(=O)N1[C@H](CO)[C@@H](c2ccc(C#CC3CCCC3)cc2)[C@@H]1C#N | inactive: 10.8%
Cc1noc(C)c1S(=O)(=O)Nc1ccc2c(c1)C(=O)N([C@@H](C)CO)C[C@@H](C)[C@@H](CN(C)C(=O)Nc1ccc(C(F)(F)F)cc1)OCCCC[C@@H](C)O2 | inconclusive: 46.3%
CO[C@H]1CN(C)C(=O)c2ccc(NC(=O)NC(C)C)cc2OC[C@@H](C)N(Cc2ccccn2)C[C@H]1C | inactive: -7.91%
COc1cccc(S(=O)(=O)N(C)C[C@@H]2Oc3ncc(C#Cc4ccc(F)cc4)cc3C(=O)N([C@H](C)CO)C[C@@H]2C)c1 | inactive: 12.3%
N#C[C@@H]1[C@@H](c2ccc(C#CC3CC3)cc2)[C@H](CO)N1S(=O)(=O)c1ccccc1 | inconclusive: 20.2%
C[C@@H]1CCCCO[C@H](CN(C)Cc2ccccc2)[C@@H](C)CN([C@@H](C)CO)C(=O)c2cc(NS(=O)(=O)c3ccc(Cl)cc3)ccc2O1 | active: 104%
O=C(c1ccccc1)N1CC[C@@H]2[C@@H](CO)Nc3ccc(-c4ccccc4F)cc3[C@@H]21 | inconclusive: 20.7%
